Test results taken from article PMC9972567.
Substitutions are numbered along the chain they refer to. These are yes or no findings as the source states them, for the method shown. In cells and extracts the contact can be indirect. Some binding calls cover weakened binding; strength is not graded here. For some assays here: Tags and fused reporters may be left off the sequences shown.

The chains behind the UniProt entries cited, without tags or fusion partners.
UniProt B2RWS6: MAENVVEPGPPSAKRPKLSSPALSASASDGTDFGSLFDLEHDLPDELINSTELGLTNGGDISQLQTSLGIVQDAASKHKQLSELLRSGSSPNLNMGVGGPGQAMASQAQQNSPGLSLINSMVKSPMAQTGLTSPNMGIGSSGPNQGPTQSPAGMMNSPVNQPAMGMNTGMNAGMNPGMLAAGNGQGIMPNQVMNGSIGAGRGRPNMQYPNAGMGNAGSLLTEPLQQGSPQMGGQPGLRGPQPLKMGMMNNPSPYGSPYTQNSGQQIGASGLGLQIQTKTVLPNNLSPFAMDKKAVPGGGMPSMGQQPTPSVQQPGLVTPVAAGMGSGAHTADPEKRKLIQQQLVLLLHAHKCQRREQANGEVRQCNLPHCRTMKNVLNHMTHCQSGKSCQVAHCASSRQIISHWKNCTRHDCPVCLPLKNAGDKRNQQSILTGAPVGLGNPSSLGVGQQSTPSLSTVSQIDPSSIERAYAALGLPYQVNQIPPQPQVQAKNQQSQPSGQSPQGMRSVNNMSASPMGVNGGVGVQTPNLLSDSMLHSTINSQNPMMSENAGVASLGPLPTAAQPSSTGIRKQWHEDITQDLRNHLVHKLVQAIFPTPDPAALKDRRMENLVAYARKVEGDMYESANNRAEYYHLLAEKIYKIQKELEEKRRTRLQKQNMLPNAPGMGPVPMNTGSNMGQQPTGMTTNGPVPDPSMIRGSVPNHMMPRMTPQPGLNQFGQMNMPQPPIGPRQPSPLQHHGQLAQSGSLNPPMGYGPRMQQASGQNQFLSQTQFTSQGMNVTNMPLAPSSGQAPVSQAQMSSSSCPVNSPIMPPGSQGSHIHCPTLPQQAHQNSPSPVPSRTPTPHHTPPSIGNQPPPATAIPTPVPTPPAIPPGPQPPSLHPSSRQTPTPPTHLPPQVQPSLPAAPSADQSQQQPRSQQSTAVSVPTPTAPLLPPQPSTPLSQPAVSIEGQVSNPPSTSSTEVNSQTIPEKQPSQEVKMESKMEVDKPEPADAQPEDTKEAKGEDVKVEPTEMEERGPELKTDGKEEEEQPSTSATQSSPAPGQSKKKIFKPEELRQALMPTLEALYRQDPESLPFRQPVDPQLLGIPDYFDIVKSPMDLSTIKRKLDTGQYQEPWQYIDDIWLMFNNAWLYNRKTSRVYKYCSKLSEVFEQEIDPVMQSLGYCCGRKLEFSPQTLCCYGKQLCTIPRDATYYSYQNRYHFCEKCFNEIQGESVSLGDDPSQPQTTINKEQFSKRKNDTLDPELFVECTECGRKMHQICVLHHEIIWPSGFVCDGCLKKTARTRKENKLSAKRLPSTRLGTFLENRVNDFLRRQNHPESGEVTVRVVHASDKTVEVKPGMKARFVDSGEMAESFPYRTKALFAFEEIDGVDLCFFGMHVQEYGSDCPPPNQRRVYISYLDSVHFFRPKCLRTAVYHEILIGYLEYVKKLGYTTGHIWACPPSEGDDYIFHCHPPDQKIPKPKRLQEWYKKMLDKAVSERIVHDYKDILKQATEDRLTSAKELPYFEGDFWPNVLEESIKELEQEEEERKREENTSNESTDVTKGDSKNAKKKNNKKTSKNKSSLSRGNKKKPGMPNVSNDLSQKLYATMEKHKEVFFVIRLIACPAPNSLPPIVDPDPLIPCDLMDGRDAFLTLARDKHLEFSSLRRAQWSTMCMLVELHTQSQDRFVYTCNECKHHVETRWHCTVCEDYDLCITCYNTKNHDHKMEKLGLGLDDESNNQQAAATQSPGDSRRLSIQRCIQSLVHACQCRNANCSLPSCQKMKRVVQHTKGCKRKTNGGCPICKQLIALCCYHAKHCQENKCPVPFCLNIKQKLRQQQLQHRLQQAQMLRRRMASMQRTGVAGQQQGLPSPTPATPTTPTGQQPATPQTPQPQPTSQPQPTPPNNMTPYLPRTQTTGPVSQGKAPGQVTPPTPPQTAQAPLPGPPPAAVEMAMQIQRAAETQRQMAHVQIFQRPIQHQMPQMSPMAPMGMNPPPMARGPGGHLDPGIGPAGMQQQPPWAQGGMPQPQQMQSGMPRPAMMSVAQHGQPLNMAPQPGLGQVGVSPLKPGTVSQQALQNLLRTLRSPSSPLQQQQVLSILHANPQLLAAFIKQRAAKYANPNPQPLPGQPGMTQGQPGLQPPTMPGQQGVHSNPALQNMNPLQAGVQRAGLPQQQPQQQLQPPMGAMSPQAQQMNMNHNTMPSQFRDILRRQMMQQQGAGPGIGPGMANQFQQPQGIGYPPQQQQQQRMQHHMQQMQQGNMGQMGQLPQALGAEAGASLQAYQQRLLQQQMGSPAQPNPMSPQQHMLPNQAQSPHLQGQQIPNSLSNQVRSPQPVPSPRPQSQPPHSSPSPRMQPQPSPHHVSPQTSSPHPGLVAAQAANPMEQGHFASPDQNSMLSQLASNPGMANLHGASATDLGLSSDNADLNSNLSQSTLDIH
UniProt P45481: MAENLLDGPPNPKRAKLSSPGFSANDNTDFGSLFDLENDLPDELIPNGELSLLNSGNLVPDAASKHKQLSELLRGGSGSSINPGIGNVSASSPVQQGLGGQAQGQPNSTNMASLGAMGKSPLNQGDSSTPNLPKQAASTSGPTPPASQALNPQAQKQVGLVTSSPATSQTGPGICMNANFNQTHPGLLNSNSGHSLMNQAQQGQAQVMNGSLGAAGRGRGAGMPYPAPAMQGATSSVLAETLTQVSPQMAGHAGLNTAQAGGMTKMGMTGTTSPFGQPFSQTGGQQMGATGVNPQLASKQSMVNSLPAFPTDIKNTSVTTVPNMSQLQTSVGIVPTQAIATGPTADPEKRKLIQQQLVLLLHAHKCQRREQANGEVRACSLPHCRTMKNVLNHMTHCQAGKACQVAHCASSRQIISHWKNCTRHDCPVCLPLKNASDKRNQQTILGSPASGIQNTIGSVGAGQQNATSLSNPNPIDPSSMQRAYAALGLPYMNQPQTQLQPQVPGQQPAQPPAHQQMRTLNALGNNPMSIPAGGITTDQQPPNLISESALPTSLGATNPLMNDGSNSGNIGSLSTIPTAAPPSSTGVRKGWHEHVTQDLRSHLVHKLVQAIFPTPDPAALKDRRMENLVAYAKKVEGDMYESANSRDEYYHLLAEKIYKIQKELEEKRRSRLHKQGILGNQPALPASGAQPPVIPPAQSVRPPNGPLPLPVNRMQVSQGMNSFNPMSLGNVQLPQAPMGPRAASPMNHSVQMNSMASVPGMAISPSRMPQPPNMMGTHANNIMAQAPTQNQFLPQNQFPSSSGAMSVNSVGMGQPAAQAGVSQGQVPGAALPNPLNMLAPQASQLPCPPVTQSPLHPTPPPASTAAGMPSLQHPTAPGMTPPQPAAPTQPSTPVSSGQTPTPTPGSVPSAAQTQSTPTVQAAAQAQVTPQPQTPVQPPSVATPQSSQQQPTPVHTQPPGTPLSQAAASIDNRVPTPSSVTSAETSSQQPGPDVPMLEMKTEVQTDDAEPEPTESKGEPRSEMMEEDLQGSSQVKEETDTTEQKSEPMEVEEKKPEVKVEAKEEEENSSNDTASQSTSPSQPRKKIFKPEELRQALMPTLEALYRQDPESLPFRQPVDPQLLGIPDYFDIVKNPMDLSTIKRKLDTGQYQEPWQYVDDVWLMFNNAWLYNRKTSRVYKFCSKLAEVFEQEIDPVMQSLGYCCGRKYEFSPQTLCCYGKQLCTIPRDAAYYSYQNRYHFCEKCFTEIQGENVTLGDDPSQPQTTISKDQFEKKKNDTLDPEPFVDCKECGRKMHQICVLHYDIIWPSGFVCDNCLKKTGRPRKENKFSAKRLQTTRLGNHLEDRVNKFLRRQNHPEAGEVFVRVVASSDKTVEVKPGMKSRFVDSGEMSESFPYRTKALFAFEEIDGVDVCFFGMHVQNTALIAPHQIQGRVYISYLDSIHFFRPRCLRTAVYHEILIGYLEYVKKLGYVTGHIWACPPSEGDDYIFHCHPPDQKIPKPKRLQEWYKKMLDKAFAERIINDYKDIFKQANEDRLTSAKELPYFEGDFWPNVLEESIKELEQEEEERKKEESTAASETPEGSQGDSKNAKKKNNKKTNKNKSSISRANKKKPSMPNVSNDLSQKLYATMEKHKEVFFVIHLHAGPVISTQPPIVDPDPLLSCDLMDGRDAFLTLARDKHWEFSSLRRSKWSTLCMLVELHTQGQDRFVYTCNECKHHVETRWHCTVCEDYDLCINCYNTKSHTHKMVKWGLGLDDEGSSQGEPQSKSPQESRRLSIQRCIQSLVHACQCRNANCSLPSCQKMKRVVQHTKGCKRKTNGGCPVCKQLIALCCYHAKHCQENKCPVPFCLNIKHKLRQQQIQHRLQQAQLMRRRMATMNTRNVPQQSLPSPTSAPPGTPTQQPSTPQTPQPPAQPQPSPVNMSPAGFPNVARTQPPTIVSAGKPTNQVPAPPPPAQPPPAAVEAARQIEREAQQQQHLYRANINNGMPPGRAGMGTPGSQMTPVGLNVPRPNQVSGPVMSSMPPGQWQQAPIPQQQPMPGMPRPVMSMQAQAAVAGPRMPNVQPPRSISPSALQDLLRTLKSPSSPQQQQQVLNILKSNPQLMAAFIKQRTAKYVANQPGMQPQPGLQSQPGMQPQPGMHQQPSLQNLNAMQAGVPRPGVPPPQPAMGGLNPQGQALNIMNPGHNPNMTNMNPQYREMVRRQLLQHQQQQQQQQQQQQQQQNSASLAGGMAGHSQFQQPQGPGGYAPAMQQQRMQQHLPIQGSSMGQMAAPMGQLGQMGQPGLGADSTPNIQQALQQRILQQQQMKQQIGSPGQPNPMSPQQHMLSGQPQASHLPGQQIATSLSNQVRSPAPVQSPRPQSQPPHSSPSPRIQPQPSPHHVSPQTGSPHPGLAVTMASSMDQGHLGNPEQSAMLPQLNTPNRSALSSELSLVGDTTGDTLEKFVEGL
UniProt Q923W1: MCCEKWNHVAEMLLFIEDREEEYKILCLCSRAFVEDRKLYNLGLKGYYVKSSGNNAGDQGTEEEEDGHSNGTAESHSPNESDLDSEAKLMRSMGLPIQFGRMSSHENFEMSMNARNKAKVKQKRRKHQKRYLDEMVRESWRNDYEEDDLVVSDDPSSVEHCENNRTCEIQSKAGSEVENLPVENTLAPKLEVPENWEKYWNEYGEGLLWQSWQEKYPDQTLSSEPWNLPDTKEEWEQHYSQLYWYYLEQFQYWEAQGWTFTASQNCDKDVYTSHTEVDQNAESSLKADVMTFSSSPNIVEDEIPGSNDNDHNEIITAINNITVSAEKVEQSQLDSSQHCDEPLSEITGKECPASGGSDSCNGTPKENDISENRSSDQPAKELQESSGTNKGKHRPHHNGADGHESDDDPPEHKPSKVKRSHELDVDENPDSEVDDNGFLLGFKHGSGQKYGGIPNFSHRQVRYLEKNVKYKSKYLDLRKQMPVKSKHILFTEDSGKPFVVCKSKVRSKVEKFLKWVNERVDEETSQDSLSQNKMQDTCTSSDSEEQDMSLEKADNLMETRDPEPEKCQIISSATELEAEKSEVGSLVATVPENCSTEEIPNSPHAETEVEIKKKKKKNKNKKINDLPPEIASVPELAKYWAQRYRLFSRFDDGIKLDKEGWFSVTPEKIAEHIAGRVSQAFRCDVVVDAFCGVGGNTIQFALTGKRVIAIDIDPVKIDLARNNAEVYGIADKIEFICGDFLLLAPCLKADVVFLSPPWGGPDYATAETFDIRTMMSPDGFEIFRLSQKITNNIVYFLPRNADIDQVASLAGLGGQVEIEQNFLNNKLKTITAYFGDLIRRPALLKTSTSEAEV

What was measured:
[1] = biological target: T1, PIMT S656A-V5 (phospho-deficient mutant of human PIMT) (human) (UniProt Q96RS0); assay: co-IP; IP with anti-V5 antibody from lysates of mouse primary hepatocytes infected with lentivirus for PIMT-V5 (W or mutants), immunoblots for Ep300 and CBP; cells treated with DMSO or Forskolin for 4h (Figure 6B) or untreated 48h after infection (Figure 6D); RIPA lysis buffer
T1 sequence: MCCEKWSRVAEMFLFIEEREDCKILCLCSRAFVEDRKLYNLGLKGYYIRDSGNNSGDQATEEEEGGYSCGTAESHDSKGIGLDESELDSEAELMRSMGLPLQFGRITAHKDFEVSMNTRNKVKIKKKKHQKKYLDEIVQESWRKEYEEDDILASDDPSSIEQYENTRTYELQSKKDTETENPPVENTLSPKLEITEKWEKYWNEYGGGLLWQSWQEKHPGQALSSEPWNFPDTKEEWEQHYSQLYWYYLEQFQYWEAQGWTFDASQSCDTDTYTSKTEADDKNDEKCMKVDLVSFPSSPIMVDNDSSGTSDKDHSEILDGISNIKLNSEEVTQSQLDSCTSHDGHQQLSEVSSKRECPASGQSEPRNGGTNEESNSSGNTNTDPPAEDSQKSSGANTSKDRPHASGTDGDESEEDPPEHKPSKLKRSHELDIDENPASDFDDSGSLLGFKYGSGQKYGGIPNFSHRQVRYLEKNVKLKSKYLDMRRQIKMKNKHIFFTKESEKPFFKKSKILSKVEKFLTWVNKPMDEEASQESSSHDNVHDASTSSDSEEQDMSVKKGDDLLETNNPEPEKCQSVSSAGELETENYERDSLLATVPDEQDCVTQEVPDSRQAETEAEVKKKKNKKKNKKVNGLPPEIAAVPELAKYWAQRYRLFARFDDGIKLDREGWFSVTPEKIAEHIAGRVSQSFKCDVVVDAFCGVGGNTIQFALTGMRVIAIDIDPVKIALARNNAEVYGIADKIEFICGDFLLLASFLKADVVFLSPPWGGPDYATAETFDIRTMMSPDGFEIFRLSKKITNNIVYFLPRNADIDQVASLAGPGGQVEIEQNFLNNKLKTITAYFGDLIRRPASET

[2] = biological target: PIMT-V5 (wild type human PIMT/TGS1, PRIP Interacting protein with Methyl Transferase domain/Trimethyl guanosine synthase I) (human) (UniProt Q96RS0); assay: as above
[3] = biological target: T2, PIMT S656D-V5 (phospho-mimetic mutant of human PIMT) (human) (UniProt Q96RS0); assay: as above
T2 sequence: T1 sequence with A656D

[4] = biological target: Ep300 (endogenous, mouse) (mouse (endogenous in primary hepatocytes and liver)) (UniProt B2RWS6); assay: co-IP; IP with anti-Ep300 or anti-CBP bound to protein A/G beads, 2h at 4 °C, from liver lysates of fed or 8h fasted mice, immunoblot for endogenous PIMT; RIPA lysis buffer; also livers of ob/ob and HFD-fed mice (Figures S9E-S9H)
[5] = biological target: CBP (endogenous, mouse) (mouse (endogenous in primary hepatocytes and liver)) (UniProt P45481); assay: as above

With “CBP (endogenous, mouse) (from UniProt P45481 1-2441)” the binding [1] was “binds”, the binding [2] was “binds” and the binding [3] was “binds”.

“PIMT (endogenous, mouse) (from UniProt Q923W1 1-853)” was tested, and the binding [4] was “binds” and the binding [5] was “binds”.
